Assay results as given in the supplement of paper PMC6411743.
± gives the standard deviation of the averaged measurements. This is a selection; strong and weak results do not stand in their true shares. Most values lie at the level of the controls, where differences are scatter.

Amino acid sequences for entries named in this document (tags omitted). A change or cut given only in a name is not applied to a line headed by its entry.
UniProt Q6IEG0: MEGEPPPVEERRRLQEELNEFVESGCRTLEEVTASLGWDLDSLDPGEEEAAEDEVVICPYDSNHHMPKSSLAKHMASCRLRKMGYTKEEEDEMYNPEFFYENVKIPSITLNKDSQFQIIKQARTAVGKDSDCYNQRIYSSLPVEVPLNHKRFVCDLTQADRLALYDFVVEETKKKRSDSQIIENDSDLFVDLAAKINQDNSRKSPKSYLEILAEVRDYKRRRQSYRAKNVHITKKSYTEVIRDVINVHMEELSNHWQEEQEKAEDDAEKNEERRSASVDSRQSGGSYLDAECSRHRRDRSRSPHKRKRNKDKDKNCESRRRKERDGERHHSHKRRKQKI
UniProt Q6PCE3: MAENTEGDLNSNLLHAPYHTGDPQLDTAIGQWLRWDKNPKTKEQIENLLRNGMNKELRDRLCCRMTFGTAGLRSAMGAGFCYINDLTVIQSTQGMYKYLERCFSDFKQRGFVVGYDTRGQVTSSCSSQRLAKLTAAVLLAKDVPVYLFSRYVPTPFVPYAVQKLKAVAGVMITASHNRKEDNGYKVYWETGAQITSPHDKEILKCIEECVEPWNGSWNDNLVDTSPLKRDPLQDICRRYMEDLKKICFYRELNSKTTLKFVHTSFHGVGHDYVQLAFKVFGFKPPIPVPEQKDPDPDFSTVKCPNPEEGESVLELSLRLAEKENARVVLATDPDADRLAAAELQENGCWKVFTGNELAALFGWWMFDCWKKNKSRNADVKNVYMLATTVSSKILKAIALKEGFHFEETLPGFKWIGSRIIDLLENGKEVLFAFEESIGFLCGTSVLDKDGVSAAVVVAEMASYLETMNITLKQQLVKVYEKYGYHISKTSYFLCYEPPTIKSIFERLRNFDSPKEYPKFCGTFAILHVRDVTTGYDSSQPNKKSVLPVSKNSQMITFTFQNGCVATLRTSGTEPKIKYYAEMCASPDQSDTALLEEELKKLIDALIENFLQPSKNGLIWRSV
UniProt Q765P7: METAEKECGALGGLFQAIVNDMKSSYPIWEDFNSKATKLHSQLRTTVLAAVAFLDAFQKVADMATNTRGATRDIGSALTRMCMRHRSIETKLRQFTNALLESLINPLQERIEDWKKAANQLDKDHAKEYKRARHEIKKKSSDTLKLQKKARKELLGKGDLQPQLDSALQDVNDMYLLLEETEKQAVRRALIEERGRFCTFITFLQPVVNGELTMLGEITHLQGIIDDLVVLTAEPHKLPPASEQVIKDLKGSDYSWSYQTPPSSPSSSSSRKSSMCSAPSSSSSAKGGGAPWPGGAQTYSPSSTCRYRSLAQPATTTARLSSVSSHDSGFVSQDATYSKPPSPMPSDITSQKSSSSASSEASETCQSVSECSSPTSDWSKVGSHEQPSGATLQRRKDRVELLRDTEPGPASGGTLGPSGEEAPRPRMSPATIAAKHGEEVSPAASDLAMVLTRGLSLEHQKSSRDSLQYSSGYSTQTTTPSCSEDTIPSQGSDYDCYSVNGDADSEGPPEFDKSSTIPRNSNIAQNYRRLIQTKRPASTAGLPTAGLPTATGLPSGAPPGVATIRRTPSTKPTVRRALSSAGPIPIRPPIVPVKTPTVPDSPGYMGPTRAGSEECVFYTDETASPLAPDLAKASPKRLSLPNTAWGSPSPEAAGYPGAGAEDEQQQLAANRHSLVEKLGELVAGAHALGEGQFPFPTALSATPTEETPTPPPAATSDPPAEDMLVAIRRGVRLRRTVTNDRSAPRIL
UniProt Q5VWN6: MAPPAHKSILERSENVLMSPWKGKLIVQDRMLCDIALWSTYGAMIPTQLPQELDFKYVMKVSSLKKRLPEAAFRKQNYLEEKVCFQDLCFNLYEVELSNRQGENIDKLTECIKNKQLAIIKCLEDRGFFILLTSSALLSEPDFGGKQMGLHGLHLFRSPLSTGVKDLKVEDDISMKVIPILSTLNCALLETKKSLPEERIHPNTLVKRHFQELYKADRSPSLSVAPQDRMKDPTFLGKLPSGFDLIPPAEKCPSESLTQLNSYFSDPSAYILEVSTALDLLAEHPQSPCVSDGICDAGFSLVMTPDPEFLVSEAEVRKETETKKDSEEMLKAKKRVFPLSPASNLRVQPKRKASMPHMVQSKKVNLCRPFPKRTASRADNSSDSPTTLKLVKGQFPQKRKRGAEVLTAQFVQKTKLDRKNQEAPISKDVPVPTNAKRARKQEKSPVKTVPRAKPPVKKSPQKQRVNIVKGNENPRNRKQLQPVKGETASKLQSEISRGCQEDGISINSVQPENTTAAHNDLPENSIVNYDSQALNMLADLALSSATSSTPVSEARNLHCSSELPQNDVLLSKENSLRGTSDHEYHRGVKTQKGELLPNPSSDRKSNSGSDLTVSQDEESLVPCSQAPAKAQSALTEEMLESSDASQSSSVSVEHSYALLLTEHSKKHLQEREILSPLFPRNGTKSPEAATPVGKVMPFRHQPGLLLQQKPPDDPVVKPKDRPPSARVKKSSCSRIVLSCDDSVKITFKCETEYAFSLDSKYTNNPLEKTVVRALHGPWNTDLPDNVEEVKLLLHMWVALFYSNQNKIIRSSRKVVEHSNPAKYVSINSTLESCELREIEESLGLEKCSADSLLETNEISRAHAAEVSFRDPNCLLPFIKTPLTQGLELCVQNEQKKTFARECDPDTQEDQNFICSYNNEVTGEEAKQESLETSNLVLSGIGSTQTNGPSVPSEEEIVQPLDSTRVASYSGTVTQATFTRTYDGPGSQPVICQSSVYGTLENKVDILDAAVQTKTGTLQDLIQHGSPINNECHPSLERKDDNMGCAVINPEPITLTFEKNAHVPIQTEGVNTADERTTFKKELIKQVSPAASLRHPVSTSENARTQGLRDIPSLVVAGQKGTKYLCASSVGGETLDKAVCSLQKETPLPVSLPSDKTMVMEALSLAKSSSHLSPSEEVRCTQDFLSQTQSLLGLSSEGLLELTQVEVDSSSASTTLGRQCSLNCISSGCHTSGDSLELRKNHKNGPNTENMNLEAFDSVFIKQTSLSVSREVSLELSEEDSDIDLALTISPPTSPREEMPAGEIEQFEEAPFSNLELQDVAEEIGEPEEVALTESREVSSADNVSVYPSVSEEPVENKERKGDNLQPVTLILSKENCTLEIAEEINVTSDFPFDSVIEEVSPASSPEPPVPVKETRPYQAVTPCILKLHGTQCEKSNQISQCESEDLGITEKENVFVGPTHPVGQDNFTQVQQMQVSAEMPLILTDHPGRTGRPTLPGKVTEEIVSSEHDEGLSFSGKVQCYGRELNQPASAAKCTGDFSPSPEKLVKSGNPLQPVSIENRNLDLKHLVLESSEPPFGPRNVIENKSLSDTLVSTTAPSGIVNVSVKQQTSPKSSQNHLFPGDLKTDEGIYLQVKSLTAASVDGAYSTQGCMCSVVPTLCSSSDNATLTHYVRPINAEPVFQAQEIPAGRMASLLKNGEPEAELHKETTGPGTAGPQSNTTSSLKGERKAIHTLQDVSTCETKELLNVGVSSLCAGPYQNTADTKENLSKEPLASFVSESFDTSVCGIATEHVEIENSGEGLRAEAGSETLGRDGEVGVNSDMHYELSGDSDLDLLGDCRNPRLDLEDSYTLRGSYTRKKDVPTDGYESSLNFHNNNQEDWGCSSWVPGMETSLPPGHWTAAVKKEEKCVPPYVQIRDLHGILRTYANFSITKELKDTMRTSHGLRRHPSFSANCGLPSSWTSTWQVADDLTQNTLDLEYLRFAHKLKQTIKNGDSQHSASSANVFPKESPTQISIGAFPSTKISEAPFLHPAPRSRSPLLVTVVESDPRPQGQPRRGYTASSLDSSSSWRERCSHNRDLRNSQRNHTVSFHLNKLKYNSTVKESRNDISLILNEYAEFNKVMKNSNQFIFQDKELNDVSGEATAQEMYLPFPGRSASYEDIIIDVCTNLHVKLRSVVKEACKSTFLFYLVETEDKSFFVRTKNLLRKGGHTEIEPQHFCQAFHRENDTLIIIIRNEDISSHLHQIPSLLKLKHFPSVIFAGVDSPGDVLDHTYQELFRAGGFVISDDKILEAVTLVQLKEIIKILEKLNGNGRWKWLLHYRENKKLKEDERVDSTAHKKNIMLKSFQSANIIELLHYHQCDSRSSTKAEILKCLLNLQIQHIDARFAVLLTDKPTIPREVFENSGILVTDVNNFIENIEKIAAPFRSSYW
UniProt Q6IA17: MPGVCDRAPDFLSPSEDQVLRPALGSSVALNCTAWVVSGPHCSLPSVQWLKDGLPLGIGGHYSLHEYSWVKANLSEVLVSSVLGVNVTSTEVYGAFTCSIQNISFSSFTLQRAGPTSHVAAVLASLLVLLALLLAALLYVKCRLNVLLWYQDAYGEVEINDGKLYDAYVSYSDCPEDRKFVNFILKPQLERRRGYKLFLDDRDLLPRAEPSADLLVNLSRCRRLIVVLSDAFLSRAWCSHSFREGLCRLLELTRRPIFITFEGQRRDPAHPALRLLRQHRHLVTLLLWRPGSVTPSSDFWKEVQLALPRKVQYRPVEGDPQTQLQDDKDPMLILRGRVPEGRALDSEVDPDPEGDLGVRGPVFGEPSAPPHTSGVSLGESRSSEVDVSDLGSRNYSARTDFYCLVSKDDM
UniProt Q6P1L5: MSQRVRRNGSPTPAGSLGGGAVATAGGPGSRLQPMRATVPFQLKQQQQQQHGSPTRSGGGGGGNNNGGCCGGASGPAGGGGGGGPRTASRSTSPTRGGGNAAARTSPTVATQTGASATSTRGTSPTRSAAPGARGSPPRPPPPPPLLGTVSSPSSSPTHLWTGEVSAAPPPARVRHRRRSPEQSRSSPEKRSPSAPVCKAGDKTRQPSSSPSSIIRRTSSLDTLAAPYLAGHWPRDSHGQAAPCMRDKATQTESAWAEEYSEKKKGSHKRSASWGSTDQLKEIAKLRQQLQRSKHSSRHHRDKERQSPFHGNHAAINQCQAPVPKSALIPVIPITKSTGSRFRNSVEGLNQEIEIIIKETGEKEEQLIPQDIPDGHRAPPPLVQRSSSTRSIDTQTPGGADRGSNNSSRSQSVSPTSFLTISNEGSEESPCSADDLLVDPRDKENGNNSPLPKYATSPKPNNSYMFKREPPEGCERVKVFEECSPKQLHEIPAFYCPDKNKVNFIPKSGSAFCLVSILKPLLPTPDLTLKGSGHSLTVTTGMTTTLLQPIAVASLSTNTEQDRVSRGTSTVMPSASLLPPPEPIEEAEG
UniProt Q5VTB9: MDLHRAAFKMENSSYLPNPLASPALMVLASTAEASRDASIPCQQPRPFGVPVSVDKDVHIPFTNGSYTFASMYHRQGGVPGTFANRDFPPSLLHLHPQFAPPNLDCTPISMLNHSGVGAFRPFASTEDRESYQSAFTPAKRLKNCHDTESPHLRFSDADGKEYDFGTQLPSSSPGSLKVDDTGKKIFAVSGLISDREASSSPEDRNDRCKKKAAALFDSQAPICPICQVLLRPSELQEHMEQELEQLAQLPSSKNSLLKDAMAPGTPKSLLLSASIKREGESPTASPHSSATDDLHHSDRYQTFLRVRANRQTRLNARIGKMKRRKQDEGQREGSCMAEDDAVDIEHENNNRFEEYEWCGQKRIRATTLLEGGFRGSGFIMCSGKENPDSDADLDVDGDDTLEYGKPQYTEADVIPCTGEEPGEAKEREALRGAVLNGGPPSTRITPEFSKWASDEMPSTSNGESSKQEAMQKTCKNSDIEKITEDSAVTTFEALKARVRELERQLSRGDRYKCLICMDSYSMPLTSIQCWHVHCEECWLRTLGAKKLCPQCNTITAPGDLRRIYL
UniProt Q6I9Y2: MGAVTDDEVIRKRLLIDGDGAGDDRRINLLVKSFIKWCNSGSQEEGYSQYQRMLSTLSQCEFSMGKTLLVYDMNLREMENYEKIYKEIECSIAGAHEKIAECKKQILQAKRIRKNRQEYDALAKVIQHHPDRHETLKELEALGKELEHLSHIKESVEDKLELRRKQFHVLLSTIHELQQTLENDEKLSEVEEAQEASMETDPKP
UniProt Q6DKK2: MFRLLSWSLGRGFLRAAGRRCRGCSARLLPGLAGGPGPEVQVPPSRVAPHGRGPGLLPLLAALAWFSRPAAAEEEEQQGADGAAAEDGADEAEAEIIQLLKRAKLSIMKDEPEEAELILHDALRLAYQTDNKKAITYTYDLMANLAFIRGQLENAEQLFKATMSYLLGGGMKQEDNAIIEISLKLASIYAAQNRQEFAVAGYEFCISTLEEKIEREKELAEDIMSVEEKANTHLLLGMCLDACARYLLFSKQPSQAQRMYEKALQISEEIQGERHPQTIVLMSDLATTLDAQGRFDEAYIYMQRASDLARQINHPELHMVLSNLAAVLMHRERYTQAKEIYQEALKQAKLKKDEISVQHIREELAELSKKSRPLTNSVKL
UniProt Q6Y1H2: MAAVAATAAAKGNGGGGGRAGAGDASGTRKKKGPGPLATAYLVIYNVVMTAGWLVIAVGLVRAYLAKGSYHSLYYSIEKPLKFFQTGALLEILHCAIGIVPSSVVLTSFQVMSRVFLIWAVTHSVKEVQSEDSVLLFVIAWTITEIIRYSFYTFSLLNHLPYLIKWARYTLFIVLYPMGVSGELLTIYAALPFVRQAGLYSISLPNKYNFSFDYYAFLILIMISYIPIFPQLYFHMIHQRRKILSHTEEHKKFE

Compound: Nc1ncnc2c1ncn2[C@@H]1O[C@H](COP(=O)(O)OP(=O)(O)NP(=O)(O)O)[C@@H](O)[C@H]1O [adenylyl imidodiphosphate]
Assay: NP40-soluble protein abundance relative to vehicle (solubility fold change) (ratio); higher = more soluble protein in presence of AMP-PNP
Outline: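 In three independent experiments, Jurkat crude lysate made by Dounce homogenisation was treated for 10 min at room temperature and then 3 min at 37 °C with eight concentrations ranging from 0.1 to 10 mM. It was then solubilised with 0.8% NP40 plus benzonase for 60 min at 4 °C and ultracentrifuged. The supernatant was TMT-labelled for LC-MS/MS, and each value is the fold change against the detergent-processed vehicle for the same replicate, using vsn-normalised intensities.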

| Target | NP40-soluble protein abundance (concentration: 0.1mM) | NP40-soluble protein abundance (concentration: 0.5mM) |
| --- | --- | --- |
| SNRNP48 (UniProt Q6IEG0) | 1.01 ± 0.055 | 1.03 ± 0.085 |
| PGM2L1 (UniProt Q6PCE3) | 0.965 ± 0.017 | 0.986 ± 0.01 |
| UniProt Q765P7 | 1.01 ± 0.028 | 1.01 ± 0.036 |
| UniProt Q6P3S1 and related entries | 0.9981 ± 0.0018 | 1.01 ± 0.019 |
| DCAF15 (UniProt Q66K64) | 1.02 ± 0.04 | 1.02 ± 0.044 |
| ANKRD11 (UniProt Q6UB99) | 0.976 ± 0.016 | 1.02 ± 0.047 |
| ZCCHC8 (UniProt Q6NZY4) | 0.985 ± 0.022 | 0.989 ± 0.049 |
| RETSAT (UniProt Q6NUM9) | 0.9902 ± 0.0062 | 0.986 ± 0.035 |
| UniProt Q5VWN6 | 1.01 ± 0.037 | 0.999 ± 0.018 |
| UniProt Q6IA17 and related entries | 0.99 ± 0.036 | 0.981 ± 0.015 |
| UniProt Q6UX04 | 0.969 ± 0.026 | 1.03 ± 0.065 |
| FAM117B (UniProt Q6P1L5) | 0.997 ± 0.023 | 0.989 ± 0.018 |
| UniProt Q7LBC6 | 0.978 ± 0.026 | 1 ± 0.04 |
| UniProt Q7Z3D6-2 | 1 ± 0.017 | 1.02 ± 0.026 |
| UniProt Q5VTB9 and related entries | 0.984 ± 0.037 | 1.02 ± 0.022 |
| UniProt Q6N069 | 1 ± 0.13 | 0.885 ± 0.18 |
| UniProt Q6PI47 | 0.926 ± 0.059 | 0.879 ± 0.07 |
| THOC7 (UniProt Q6I9Y2) | 1.17 ± 0.038 | 1.25 ± 0.051 |
| UniProt Q6PI26 and related entries | 0.999 ± 0.015 | 1.02 ± 0.011 |
| UHRF1BP1 (UniProt Q6BDS2) | 0.998 ± 0.025 | 0.97 ± 0.05 |
| UniProt Q75QN2 and related entries | 0.978 ± 0.055 | 0.952 ± 0.024 |
| TTC19 (UniProt Q6DKK2) | 1 ± 0.072 | 1.02 ± 0.038 |
| UniProt Q6Y1H2 | 0.984 ± 0.04 | 0.988 ± 0.028 |
| UniProt Q5VWP2 | 1 ± 0.04 | 1.02 ± 0.031 |

Two entries from above, reformatted.
UniProt Q6P3S1 and related entries
  NP40-soluble protein abundance (concentration: 0.1mM): 0.9981 ± 0.0018; NP40-soluble protein abundance (concentration: 0.5mM): 1.01 ± 0.019
UniProt Q6PI47
  NP40-soluble protein abundance (concentration: 0.1mM): 0.926 ± 0.059; NP40-soluble protein abundance (concentration: 0.5mM): 0.879 ± 0.07
